Measurements reported in article PMC6713698.
No constants are given. Whether binding was seen depends on the method and setting. In cells and extracts the contact can be indirect. Some entries that bind do so weakly or less than the wild type.

Sequences of proteins named here, by UniProt entry; tags and fusion partners are left off.
UniProt P10275: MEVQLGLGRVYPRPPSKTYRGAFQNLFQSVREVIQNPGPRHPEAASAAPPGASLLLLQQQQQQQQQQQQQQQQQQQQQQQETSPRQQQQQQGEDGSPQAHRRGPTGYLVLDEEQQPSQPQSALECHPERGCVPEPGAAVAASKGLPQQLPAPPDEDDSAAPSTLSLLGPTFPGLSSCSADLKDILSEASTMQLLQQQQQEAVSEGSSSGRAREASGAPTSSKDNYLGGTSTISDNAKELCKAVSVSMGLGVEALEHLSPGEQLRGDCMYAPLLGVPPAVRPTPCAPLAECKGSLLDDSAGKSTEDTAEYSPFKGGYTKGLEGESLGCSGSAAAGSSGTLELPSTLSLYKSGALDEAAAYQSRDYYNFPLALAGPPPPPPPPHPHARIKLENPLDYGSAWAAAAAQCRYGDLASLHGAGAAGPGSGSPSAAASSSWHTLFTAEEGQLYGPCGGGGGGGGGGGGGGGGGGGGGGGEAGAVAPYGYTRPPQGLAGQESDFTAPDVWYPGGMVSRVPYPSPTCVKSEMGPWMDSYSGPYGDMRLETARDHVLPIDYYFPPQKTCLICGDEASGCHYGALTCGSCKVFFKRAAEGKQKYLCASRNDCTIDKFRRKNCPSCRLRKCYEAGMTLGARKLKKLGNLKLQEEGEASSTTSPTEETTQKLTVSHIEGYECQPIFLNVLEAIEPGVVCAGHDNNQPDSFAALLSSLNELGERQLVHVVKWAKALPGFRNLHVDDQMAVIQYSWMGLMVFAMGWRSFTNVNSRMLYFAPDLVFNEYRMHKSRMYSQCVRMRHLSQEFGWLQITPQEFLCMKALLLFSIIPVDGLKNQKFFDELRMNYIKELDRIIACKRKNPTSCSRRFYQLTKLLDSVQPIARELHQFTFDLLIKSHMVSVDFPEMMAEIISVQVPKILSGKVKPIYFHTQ

Key:
[1] = target: androgen receptor (human (endogenous in primary endometrial stromal cells)) (UniProt P10275); experiment: co-IP; PCOS stromal cells left untreated (no DHT); lysate precipitated with anti-AR antibody, blot probed with anti-MAGEA11; IgG as negative control
[2] = target: androgen receptor (human (endogenous in primary endometrial stromal cells)) (UniProt P10275); experiment: co-IP; PCOS stromal cells exposed to 0.1 uM DHT for 24 h, fixed with 4% paraformaldehyde, RIPA lysate; precipitated with anti-AR antibody and A/G PLUS-Agarose beads, blot probed with anti-MAGEA11; IgG as negative control

B1: MAGEA11 (protein, UniProt P43364 1-429)
chain: METQFRRGGLGCSPASIKRKKKREDSGDFGLQVSTMFSEDDFQSTERAPYGPQLQWSQDLPRVQVFREQANLEDRSPRRTQRITGGEQVLWGPITQIFPTVRPADLTRVIMPLEQRSQHCKPEEGLQAQEEDLGLVGAQALQAEEQEAAFFSSTLNVGTLEELPAAESPSPPQSPQEESFSPTAMDAIFGSLSDEGSGSQEKEGPSTSPDLIDPESFSQDILHDKIIDLVHLLLRKYRVKGLITKAEMLGSVIKNYEDYFPEIFREASVCMQLLFGIDVKEVDPTSHSYVLVTSLNLSYDGIQCNEQSMPKSGLLIIVLGVIFMEGNCIPEEVMWEVLSIMGVYAGREHFLFGEPKRLLTQNWVQEKYLVYRQVPGTDPACYEFLWGPRAHAETSKMKVLEYIANANGRDPTSYPSLYEDALREEGEGV
- binding [1]: no binding (condition: cells not treated with DHT)
- binding [2]: binds
